# Laboratory results from paper PMC12409426.
# Chains of the proteins cited; added tags and fusions are not shown.
# UniProt Q00987: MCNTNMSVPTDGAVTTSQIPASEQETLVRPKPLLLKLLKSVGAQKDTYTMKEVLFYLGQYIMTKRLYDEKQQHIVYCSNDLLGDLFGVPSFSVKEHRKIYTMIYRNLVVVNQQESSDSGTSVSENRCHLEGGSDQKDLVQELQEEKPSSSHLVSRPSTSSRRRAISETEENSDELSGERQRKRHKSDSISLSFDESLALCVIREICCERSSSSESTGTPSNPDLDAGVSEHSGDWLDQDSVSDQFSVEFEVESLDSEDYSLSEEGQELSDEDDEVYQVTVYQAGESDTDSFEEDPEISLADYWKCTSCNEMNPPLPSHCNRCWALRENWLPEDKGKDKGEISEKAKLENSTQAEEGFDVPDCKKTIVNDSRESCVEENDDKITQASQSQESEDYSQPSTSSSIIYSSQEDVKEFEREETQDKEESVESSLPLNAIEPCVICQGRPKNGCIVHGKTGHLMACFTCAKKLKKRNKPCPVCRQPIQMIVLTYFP
# No constants are given. Whether binding was seen depends on the method and setting. For part of these data: Binding seen in cells or lysates may run through a third protein. Some binding calls cover weakened binding; strength is not graded here. For part of these data: Where a sequence is shown, tags or fusion partners need not be part of it.
# Assays:
# [1] = biological target: His-tagged MDM2 (recombinant, bacteria-expressed) (UniProt Q00987); assay: pull-down; recombinant MDM2 (0.1-1 μg) incubated with one recombinant partner, pulled down with anti-MDM2 (SMP14) agarose, IB; overnight 4 °C in 50 mM Tris-HCl pH 8.0, 50 mM NaCl, 80 mM KCl, 0.05% Tween-20; PIP2 (0-50 μM) added in some panels; both purified
# [2] = biological target: MDM2 (endogenous) (human (endogenous in MDA-MB-231)) (UniProt Q00987); assay: co-IP; endogenous MDM2 immunoprecipitated with anti-MDM2 (SMP14) agarose from RIPA lysates, 4 °C 24 h, IB; cells treated with vehicle or 30 μM cisplatin for 24 h
# [3] = biological target: MDM2 (endogenous) (human (endogenous in MDA-MB-231)) (UniProt Q00987); assay: proximity ligation; Duolink PLA on fixed, permeabilised cells (MDA-MB-231) treated with vehicle or 30 μM cisplatin for 24 h (PIPKIα siRNA as control); nuclear foci counted
binding [1],binding [2],binding [3],Binder
binds,–,–,"αB-crystallin (recombinant, His-tagged) (protein, UniProt P02511 1-175) MDIAIHHPWIRRPFFPFHSPSRLFDQFFGEHLLESDLFPTSTSLSPFYLRPPSFLRAPSWFDTGLSEMRLEKDRFSVNLDVKHFSPEELKVKVLGDVIEVHGKHEERQDEHGFISREFHRKYRIPADVDPLTITSSLSSDGVLTVNGPRKQVSGPERTIPITREEKPAVTAAPKK"
–,binds,binds,"αB-crystallin (endogenous) (protein, UniProt P02511 1-175) MDIAIHHPWIRRPFFPFHSPSRLFDQFFGEHLLESDLFPTSTSLSPFYLRPPSFLRAPSWFDTGLSEMRLEKDRFSVNLDVKHFSPEELKVKVLGDVIEVHGKHEERQDEHGFISREFHRKYRIPADVDPLTITSSLSSDGVLTVNGPRKQVSGPERTIPITREEKPAVTAAPKK"
